Data: US11926826B2, “Twist signaling inhibitor compositions and methods of using the same” (City of Hope, priority 2016, dated 2024)
Some results were stated once for a whole list of compounds, not compound by compound.

Key:
Format in all cases: cell-based, human
N-Cadherin mRNA = assay: qPCR after YTZ3-15 delivery of siTwist in SUM 1315: N-Cadherin; settings: delivered via YTZ3-15; after one day
Description: (§1) Cell Culture, Transfection, and Stable Cell Line Production. SUM 1315 breast cancer cells were obtained from ATCC (Manassas, VA). Cells were maintained at 37° C., 5% CO2, and 90% humidity in a tissue culture incubator. Media for SUM 1315 cells consisted of a 50-50 mixture of DMEM and F12 media, supplemented with 5 μg/ml insulin, 10 ng/ml EGF, 5% fetal bovine serum, and 1% penicillin/streptomycin. Cells were passaged using 0.25% trypsin (Genesee Scientific, San Diego, CA) every 2-3 days as they reached confluency. […]
(§2) Quantitative PCR. […] RNA quantity and quality was measured and analyzed (with 260/280 nm and 260/230 nm spectra measurements) using a NanoDrop ND-1000 (Thermo Fisher Scientific, Waltham, MA). […] Quantitative RT-PCR was performed in quadruplicate using Maxima SYBR Green Master Mix (Thermo Fisher Scientific, Waltham, MA) in 25 μl reactions. […] Data were analyzed using Bio-Rad iQ5 software using the 2^−ΔΔ^Ct method and normalized to Actin. […]

Vimentin mRNA = assay: qPCR after YTZ3-15 delivery of siTwist in SUM 1315: Vimentin; settings: delivered via YTZ3-15; after seven days
Description: as §1, §2

SUM 1315 cells = assay: Transwell Matrigel invasion assay, SUM 1315; settings: YTZ3-15 transfection; one day migration after one day incubation
TWIST1 = TWIST1 knockdown after Lipofectamine 2000 transfection of siRNA in MDA-MB-435S cells (western blot); settings: 72 hours following Lipofectamine 2000 transfection
Description: Transient transfection of MDA-MB-435S GFP+ffluc was carried out using LIPOFECTAMINE® 2000 (Thermo Fisher Scientific, Waltham, MA) according to the manufacturer's instructions. LIPOFECTAMINE® 2000 transfection was used to confirm the functionality of the siRNA (si419 and si494) prior to testing their efficacy with MSNs. Transfection of siRNA with MSNs was carried out by incubating the MSNs with the siRNA overnight at 4° C. while rotating the tube constantly. The mixture consisted of 7 parts MSN (diluted to 500 ng/ul in sterile PBS) to 1 part siRNA (diluted to 10 uM). The final concentration for of MSNs and siRNA applied to cells was 17.5 ng/ul and 50 nM, respectively.
Western Blot. Following siRNA treatment described above, cells were lifted from tissue culture wells with 0.25% trypsin, pelleted, and lysed in RIPA buffer. Protein concentration was determined using a BCA Assay (Thermo Fisher Scientific). A total of 30 μg of protein per lane was run on 4% stacking and 12% resolving polyacrylamide gels. Following gel electrophoresis, protein was transferred to Immobilon-P PVDF membrane (Millipore, Billerica, MA) using a Trans-Blot SD Semi-Dry Transfer Cell (Bio-Rad, Hercules, CA). Membranes were then blocked with 5% dry milk dissolved in 1×PBS with 0.1% Tween-20. Antibodies were diluted in blocking buffer (1:250 for anti-TWIST1 and 1:2,500 for anti-Actin). […]

TWIST1 mRNA = assay: qPCR after YTZ3-15 delivery of siTwist in SUM 1315: TWIST1; settings: delivered via YTZ3-15; compared to siQ control (at seven days); lasted seven days

Substance | N-Cadherin mRNA decrease (N-Cadherin mRNA) | Vimentin mRNA remaining (Vimentin mRNA) | decrease in invasion through matrigel (SUM 1315 cells) | TWIST1 protein reduction (TWIST1) | TWIST1 knockdown at the mRNA level (TWIST1 mRNA)
si419: anti-TWIST siRNA; passenger 5′-GGACAAGCUGAGCAAGAUU-3′ (SEQ ID No: 1), guide 5′-AAUCUUGCUCAGCUUGUCCUU-3′ (SEQ ID No: 2) (listed as RNA, chemistry not fully specified) | > 40% | < 10% | > 50% | greater than 90% | > 90%
si494: anti-TWIST siRNA; passenger 5′-GCGACGAGCUGGACUCCAA-3′ (SEQ ID No: 3), guide 5′-UUGGAGUCCAGCUCGUCGCUU-3′ (SEQ ID No: 4) (listed as RNA, chemistry not fully specified) | > 40% | < 10% | > 50% | greater than 90% | > 90%
